Test results as given in patent US20220152158A1.
These are yes or no findings as the source states them, for the method shown. In cells and extracts the contact can be indirect. Some binding calls cover weakened binding; strength is not graded here.

Chains of the proteins cited; added tags and fusions are not shown. Residues count along the entry.
UniProt P99999, residues 2-105: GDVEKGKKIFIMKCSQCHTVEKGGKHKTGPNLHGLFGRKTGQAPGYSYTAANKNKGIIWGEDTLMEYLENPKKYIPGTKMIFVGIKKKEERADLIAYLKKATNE
UniProt O14727: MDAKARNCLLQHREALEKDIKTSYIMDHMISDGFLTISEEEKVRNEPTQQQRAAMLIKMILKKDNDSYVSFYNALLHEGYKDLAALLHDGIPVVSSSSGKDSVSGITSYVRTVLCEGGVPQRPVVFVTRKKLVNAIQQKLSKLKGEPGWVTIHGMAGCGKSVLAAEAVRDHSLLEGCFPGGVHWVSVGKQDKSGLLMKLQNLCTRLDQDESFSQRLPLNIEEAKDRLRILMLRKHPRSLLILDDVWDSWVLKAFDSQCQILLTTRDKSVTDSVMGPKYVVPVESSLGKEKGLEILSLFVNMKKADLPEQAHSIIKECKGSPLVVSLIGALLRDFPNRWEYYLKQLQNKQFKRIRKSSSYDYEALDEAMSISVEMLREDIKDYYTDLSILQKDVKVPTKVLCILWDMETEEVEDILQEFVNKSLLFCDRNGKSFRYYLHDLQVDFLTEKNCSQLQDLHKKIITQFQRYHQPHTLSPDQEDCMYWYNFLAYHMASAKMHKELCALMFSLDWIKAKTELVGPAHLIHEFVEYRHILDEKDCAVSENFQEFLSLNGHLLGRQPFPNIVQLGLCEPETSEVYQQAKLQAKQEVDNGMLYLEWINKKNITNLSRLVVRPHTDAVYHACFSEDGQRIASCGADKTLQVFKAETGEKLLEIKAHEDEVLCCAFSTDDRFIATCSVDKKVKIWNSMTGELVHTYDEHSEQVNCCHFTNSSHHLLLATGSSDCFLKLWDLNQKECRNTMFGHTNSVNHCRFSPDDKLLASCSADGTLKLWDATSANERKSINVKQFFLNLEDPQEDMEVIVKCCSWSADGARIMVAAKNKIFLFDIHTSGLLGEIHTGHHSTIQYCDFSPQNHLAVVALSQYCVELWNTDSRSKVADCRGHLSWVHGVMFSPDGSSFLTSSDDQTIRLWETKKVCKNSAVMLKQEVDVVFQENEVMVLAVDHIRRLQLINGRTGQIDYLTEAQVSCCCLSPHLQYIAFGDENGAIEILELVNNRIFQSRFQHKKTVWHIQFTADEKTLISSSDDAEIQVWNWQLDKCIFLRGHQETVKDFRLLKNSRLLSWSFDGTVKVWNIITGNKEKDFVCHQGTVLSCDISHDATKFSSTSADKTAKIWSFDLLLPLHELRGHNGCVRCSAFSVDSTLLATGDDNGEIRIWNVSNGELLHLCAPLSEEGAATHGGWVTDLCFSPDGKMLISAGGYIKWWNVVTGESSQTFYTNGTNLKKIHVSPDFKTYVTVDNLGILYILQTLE

Target: cytochrome C (human) (UniProt P99999)
Assay: in situ proximity ligation assay in HTR-8/SVneo cells in hypoxia, with and without 50 nM irisin

binding: binds
Substance: APAF1 (from UniProt O14727 1-1248)
